Assay [1] deals with NIPBL, cohesin loader subunit (human (endogenous in HeLa)) (UniProt Q6KC79). Description: co-IP; Additional file 1: Fig. S2C; HeLa cells transfected with wild-type or LIS-poly-Ala RAD21; methods and bait of this panel not shown.
In assay [2] the target is T1, WAPL, cohesin release factor (human (endogenous in HeLa)) (UniProt Q7Z5K2).
T1 sequence: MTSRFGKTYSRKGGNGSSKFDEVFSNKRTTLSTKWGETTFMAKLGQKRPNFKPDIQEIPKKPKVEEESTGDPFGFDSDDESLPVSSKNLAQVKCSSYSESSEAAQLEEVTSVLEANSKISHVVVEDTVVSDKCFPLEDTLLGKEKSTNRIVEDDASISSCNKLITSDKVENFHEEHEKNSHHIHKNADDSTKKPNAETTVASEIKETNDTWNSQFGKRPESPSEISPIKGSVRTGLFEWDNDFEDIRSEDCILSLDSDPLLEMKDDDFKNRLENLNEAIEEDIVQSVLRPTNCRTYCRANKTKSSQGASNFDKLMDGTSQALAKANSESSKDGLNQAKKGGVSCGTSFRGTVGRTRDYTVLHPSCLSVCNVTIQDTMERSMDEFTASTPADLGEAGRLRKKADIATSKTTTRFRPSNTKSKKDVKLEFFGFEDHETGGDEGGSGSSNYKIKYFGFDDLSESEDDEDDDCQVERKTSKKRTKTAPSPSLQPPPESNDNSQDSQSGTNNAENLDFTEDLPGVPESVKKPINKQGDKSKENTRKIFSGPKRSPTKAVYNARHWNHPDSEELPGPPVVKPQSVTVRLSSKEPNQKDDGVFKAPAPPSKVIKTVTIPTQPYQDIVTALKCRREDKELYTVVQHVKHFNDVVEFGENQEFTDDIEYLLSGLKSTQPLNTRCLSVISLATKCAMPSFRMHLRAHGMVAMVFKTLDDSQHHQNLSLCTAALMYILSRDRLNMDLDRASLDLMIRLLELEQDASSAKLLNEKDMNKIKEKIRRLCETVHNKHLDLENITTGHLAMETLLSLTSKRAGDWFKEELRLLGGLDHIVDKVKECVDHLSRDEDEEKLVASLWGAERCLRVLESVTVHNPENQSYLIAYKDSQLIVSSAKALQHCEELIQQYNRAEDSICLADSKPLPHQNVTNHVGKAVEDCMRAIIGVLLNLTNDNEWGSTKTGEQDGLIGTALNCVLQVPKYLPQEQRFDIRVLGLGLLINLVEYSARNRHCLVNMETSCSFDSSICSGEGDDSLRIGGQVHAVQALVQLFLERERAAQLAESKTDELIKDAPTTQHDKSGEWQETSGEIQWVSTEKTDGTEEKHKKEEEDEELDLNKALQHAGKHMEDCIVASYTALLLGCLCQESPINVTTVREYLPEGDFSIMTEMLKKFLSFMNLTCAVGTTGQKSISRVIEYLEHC
Described as above.

Amino acid sequences for entries named in this document (tags omitted).
UniProt Q6KC79: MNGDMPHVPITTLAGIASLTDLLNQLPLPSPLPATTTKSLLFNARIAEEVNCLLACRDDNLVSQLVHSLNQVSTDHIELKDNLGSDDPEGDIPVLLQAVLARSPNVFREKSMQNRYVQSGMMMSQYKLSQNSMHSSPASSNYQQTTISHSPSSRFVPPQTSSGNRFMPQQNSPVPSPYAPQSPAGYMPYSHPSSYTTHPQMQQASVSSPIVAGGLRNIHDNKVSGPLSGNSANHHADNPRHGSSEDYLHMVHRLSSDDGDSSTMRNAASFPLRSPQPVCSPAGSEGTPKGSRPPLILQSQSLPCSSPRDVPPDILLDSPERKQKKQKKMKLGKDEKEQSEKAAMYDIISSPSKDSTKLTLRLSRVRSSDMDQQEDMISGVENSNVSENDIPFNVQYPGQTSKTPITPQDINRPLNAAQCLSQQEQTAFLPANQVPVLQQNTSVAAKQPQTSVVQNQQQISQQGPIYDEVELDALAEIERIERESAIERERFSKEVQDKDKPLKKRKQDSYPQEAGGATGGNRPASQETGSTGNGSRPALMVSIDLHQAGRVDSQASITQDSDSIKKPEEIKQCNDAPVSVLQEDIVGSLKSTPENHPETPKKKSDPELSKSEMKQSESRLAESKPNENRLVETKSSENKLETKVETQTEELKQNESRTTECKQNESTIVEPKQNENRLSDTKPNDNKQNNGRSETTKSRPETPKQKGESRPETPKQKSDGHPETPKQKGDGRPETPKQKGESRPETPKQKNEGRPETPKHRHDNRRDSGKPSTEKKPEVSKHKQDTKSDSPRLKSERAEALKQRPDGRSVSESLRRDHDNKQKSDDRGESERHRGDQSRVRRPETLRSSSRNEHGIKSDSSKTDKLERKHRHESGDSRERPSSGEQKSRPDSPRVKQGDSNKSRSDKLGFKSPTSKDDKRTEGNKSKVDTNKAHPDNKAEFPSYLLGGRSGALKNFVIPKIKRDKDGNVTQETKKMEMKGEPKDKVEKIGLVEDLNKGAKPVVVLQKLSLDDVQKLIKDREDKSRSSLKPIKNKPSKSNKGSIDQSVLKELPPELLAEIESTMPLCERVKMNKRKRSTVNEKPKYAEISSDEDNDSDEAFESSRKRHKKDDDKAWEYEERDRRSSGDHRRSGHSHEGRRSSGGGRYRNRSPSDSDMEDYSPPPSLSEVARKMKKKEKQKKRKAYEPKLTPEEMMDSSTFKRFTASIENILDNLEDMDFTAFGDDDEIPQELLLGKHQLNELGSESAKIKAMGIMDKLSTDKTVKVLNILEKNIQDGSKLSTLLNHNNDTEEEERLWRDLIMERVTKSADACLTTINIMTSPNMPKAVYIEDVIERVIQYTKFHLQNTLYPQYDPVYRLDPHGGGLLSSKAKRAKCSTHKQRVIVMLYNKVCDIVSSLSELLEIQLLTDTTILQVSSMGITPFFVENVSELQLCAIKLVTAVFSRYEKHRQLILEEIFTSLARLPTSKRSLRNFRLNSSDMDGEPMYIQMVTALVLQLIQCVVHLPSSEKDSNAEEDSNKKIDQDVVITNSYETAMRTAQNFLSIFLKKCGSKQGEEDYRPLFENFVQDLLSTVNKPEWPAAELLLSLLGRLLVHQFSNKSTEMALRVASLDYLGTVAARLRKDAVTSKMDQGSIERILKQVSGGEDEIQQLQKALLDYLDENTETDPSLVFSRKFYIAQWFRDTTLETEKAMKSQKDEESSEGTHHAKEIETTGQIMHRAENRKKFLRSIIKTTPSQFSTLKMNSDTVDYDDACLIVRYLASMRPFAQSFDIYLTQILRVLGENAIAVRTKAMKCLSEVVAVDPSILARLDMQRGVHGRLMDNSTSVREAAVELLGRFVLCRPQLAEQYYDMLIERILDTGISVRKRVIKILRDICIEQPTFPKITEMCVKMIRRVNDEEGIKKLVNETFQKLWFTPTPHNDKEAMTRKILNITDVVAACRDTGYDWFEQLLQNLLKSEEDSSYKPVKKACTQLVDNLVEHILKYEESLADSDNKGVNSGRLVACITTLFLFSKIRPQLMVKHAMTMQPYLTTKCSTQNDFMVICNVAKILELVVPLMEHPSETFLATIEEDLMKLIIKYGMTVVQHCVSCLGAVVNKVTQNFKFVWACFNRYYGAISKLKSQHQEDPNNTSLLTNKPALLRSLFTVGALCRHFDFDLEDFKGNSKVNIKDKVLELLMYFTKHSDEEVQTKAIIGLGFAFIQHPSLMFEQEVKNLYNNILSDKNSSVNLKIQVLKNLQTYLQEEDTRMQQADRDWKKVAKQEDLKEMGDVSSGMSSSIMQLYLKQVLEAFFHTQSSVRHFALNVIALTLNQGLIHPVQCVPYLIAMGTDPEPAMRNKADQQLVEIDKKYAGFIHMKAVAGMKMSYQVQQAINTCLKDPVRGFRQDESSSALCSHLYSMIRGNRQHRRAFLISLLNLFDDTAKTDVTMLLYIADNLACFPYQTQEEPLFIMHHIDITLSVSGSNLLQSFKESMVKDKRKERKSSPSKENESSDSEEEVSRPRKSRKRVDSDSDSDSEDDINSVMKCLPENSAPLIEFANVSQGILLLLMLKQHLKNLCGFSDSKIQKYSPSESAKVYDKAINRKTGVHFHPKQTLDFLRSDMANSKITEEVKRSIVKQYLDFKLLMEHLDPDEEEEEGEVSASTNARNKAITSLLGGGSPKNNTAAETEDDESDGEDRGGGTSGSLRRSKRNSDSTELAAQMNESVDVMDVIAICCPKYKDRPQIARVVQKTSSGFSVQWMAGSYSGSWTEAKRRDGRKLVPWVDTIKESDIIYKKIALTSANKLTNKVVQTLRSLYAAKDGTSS

These are yes or no findings as the source states them, for the method shown. Binding seen in cells or lysates may run through a third protein. Some results given as binding are weak or reduced against the parent protein; the word gives no strength. Tags and fused reporters may be left off the sequences shown.

B1: wild-type human RAD21, EGFP-tagged, over-expressed in HeLa cells (protein, UniProt O60216 1-631)
chain: MFYAHFVLSKRGPLAKIWLAAHWDKKLTKAHVFECNLESSVESIISPKVKMALRTSGHLLLGVVRIYHRKAKYLLADCNEAFIKIKMAFRPGVVDLPEENREAAYNAITLPEEFHDFDQPLPDLDDIDVAQQFSLNQSRVEEITMREEVGNISILQENDFGDFGMDDREIMREGSAFEDDDMLVSTTTSNLLLESEQSTSNLNEKINHLEYEDQYKDDNFGEGNDGGILDDKLISNNDGGIFDDPPALSEAGVMLPEQPAHDDMDEDDNVSMGGPDSPDSVDPVEPMPTMTDQTTLVPNEEEAFALEPIDITVKETKAKRKRKLIVDSVKELDSKTIRAQLSDYSDIVTTLDLAPPTKKLMMWKETGGVEKLFSLPAQPLWNNRLLKLFTRCLTPLVPEDLRKRRKGGEADNLDEFLKEFENPEVPREDQQQQHQQRDVIDEPIIEEPSRLQESVMEASRTNIDESAMPPPPPQGVKRKAGQIDPEPVMPPQQVEQMEIPPVELPPEEPPNICQLIPELELLPEKEKEKEKEKEDDEEEEDEDASGGDQDQEERRWNKRTQQMLHGLQRALAKTGAESISLLELCRNTNRKQAAAKFYSFLVLKKQQAIELTQEEPYSDIIATPGPRFHII
For B1, the binding result in assay [1] and in assay [2] was “binds” throughout.

Source of the values: PMC10303866.
